Assay results published in patent US20260116920A1, “HUMAN TRANSFERRIN RECEPTOR BINDING PEPTIDE” (PEPTIDREAM INC., priority 2021, published 2026).
For at least one compound, name, drawing or mass did not settle the structure.

The chains behind the UniProt entries cited, without tags or fusion partners. Residues count along the entry.
UniProt P02786, 89-760 limits assumed: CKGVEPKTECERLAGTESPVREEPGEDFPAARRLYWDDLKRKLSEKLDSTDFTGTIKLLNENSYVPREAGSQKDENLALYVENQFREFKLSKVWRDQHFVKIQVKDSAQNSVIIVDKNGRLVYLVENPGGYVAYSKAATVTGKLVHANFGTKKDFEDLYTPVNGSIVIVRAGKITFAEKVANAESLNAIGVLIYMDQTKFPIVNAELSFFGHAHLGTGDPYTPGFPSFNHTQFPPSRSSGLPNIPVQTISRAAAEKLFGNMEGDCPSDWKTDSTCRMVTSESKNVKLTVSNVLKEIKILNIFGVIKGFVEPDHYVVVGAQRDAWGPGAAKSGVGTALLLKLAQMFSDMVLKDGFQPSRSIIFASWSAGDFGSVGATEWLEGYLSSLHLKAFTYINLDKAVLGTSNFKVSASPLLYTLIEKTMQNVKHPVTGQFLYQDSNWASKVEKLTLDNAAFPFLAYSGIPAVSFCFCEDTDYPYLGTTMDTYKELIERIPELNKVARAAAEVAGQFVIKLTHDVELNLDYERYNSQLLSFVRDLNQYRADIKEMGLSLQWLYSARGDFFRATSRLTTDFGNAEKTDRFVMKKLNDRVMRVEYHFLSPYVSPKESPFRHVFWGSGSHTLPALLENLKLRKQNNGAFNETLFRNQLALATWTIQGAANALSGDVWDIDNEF

Target: T1, human transferrin receptor (hTfR) (Homo sapiens, UniProt P02786)
T1 construct: made in house
Test: Evaluation of molecular interaction between transferrin receptor (hTfR) and peptide using surface plasmon resonance (SPR)
Details: KD class for binding to hTfR by SPR; peptide with the linker shown in the same line; 'low signal indicates no activity'
Protocol: Evaluation Test of Molecular Interaction Between Transferrin Receptor (hTfR) and Peptide Using Surface Plasmon Resonance (SPR)
The intermolecular interactions of various synthesized peptides with the transferrin receptor (hTfR) by surface plasmon resonance (SPR) of the peptides were tested by the methods described below. Specific test methods are shown below.
NTA sensor chip (Global Life Sciences Technologies Japan K.K.) was inserted into BiacoreT200 (Global Life Sciences Technologies Japan K.K.), then the priming operation was performed three times by using running buffer containing: 10 mM HEPES pH 8.0 (Nacalai Tesque, Inc.), 150 mM NaCl (Nacalai Tesque, Inc.), 0.05% Tween 20 (Nacalai Tesque, Inc.), 0.1% BSA (SIGMA-ALDRICH) and 1.0% DMSO (FUJIFILM Wako Pure Chemical Corporation), and equilibrated at a flow rate of 30 μL/min. […]
The kinetic evaluation model was single-cycle kinetics, and curve fitting was performed using Biacore T200 Evaluation Software Version 3.0 (Global Life Science Technologies Japan K.K.). The binding of the peptide to hTfR was evaluated by performing curve fitting on the obtained sensorgram by least squares method and obtaining the KD value.

| SMILES | Kd |
| --- | --- |
| CC[C@H](C)[C@@H]1NC(=O)[C@H](Cc2ccc(O)cc2)NC(=O)[C@H](Cc2ccc(O)cc2)NC(=O)[C@H](CC(N)=O)NC(=O)[C@H](Cc2c[nH]c3ccc(Cl)cc23)NC(=O)[C@H](C(C)C)NC(=O)[C@H](Cc2ccccc2)N(C)C(=O)[C@H](C(C)C)NC(=O)[C@H](C)NC(=O)CSC[C@@H](C(=O)NCCOCCOCCOCCOCCC(N)=O)NC(=O)[C@H](Cc2ccc(O)cc2)N(C)C(=O)[C@H](Cc2ccc(O)cc2)NC(=O)[C@H](CCCNC(=N)N)NC(=O)[C@H](CCCNC(=N)N)NC(=O)[C@H]([C@@H](C)CC)NC1=O [894_0288] | 1 to 100 nM |
| CC[C@H](C)[C@@H]1NC(=O)[C@H](Cc2ccc(OC)cc2)NC(=O)[C@H](Cc2ccc(O)cc2)NC(=O)[C@H](CC(N)=O)NC(=O)[C@H](Cc2c[nH]c3ccc(Cl)cc23)NC(=O)[C@H](C(C)C)NC(=O)[C@H](Cc2ccc(F)cc2)N(C)C(=O)[C@H](C(C)C)NC(=O)[C@H](C)NC(=O)CSC[C@@H](C(=O)NCCOCCOCCOCCOCCC(N)=O)NC(=O)[C@H](Cc2ccc(O)cc2)N(C)C(=O)[C@H](Cc2ccc(O)cc2)NC(=O)[C@H](CCCNC(=N)N)NC(=O)[C@H](CCCNC(=N)N)NC(=O)[C@H]([C@@H](C)CC)NC1=O [894_0290] | 1 to 100 nM |
